Record: PubChem BioAssay AID504764 (Drosophila RNAi Screening Center, 2011)

- Purpose: 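Knock-downs that raise or lower a Notch target reporter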 (primary screen)
- Cells: Drosophila Kc167 cells
- Reagent: long dsRNA against Drosophila genes
- Duration: about 5 days (4 days dsRNA, then 24 h after transfection)
- Challenge: transfection of constitutively active membrane-tethered Notch lacking the extracellular domain, read 24 h later
- Detection: 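Firefly luciferase from an E(spl)m3 reporter with active Notch, plus control-promoter and uninduced reporter wells for normalisation; unnormalised counts, duplicate wells a and b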
- Direction: induced reporter light, run 1, well a and induced reporter light, run 1, well b: higher = more light from the Notch target reporter with active Notch; control promoter light, run 1, well a and control promoter light, run 1, well b: higher = more light from the viral control promoter (cell number, transfection, viability); uninduced reporter light, run 1, well a: higher = more light from the Notch target reporter without active Notch
- Rule for the call: 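Hit if the duplicate-averaged log2 ratio of induced to control-promoter light gives a plate-wise z beyond ±2, or induced to uninduced beyond ±1.8; weak-control or discordant-duplicate wells dropped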
- Meaning of the calls: active = modifier hit (raised or lowered Notch signal); inactive = not a hit
In all, the deposit lists about 22,000 reagents; below is an unselected part of those with a known target gene and a result. Over the whole deposit, 403 (1.9%) are marked active. 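Unnormalised raw counts per well; ratio z-scores behind the hit calls and whether each hit raises or lowers signal are not deposited.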 Reagents against one gene are numbered here. Names joined by + are all predicted targets of the reagent. The record does not give: the amount of reagent.

gene knocked down	reagent	induced reporter light, run 1, well a	induced reporter light, run 1, well b	control promoter light, run 1, well a	control promoter light, run 1, well b	uninduced reporter light, run 1, well a	outcome
zye	1	1.08e5	86920	84285	73575	5215	inactive
Desi (Desiccate)	1	78320	77035	84600	61500	6855	inactive
CG14515	1	1.13e5	1.26e5	1.20e5	1.33e5	9595	inactive
Rab35	1	1.43e5	1.42e5	1.39e5	91885	11142	inactive
GluRS-m (Glutamyl-tRNA synthetase, mitochondrial)	1	1.32e5	1.09e5	1.28e5	1.47e5	7140	inactive
Cyp6d2 (Cytochrome P450 6d2)	1	1.90e5	1.52e5	1.33e5	1.40e5	12245	inactive
CG5112	1	2.12e5	2.00e5	2.89e5	2.76e5	14292	inactive
CG12231	1	77685	60045	81695	1.11e5	9700	inactive
l(3)S110416 (retired record)	1	1.48e5	1.80e5	2.02e5	2.01e5	13615	inactive
CG18302	1	1.20e5	1.28e5	71265	1.07e5	16660	inactive
ND-SGDH (NADH dehydrogenase (ubiquinone) SGDH subunit)	1	34365	38860	41670	31765	2865	inactive
mei-41 (meiotic 41)	1	50205	45940	52175	53735	5210	inactive
Fbw5 (F-box and WD repeat domain containing 5)	1	87340	82535	95115	92890	3980	inactive
Kaz (Katazuke)	1	1.56e5	1.62e5	1.93e5	1.69e5	11725	inactive
CG10459	1	1.58e5	1.52e5	2.03e5	1.99e5	12930	inactive
CG31601	1	85160	86665	82545	76945	8790	inactive
CG14691	1	69895	73770	68480	50780	3520	inactive
Taz (Tafazzin)	1	1.24e5	1.37e5	1.52e5	1.37e5	9755	inactive
TRAM	1	1.08e5	96545	1.95e5	1.85e5	7960	inactive
TRAM	2	1.31e5	1.35e5	2.26e5	2.42e5	8992	inactive
mRpL47 (mitochondrial ribosomal protein L47)	1	77705	73440	62555	45145	4350	inactive
Samuel	1	71095	69325	45960	45105	15210	inactive
Samuel	2	22680	25160	13250	9750	7400	inactive
Samuel	3	1.17e5	1.42e5	67340	1.11e5	14442	inactive
CG14668	1	97260	1.12e5	79805	78115	4820	inactive
Kdm3 (Lysine demethylase 3)	1	51325	73815	55655	53890	3715	inactive
ppk17 (pickpocket 17)	1	1.34e5	1.37e5	1.47e5	1.61e5	11278	inactive
betaTub85D (beta-Tubulin at 85D)	1	70280	81810	77950	59125	3420	inactive
CG7848	1	32835	25225	51985	34640	4145	inactive
CG5346	1	2.17e5	2.04e5	2.24e5	2.26e5	16425	inactive
Diedel3 (Diedel 3)	1	60350	80595	99010	90765	10890	inactive
CG12016 + Dpm2	1	56800	50175	22485	8785	11270	inactive
CG13380 + CG4174	1	1.22e5	1.06e5	61690	66950	9730	inactive
CG13380 + CG4174	2	1.47e5	1.87e5	2.45e5	2.11e5	9050	inactive
CG43740	1	83645	87075	1.15e5	86120	5405	inactive
CG1503	1	1.78e5	1.58e5	1.37e5	70705	13420	inactive
eIF3i (eukaryotic translation initiation factor 3 subunit i)	1	12480	12045	14740	18570	800	active
CG4660	1	1.71e5	1.70e5	2.82e5	2.57e5	14150	inactive
sas (stranded at second)	1	1.04e5	1.12e5	1.16e5	95040	10478	inactive
BthD (BthD selenoprotein)	1	82350	1.07e5	1.11e5	74285	5740	inactive
CG14440	1	23670	19345	32215	25190	5470	inactive
OdsH (Ods-site homeobox)	1	1.45e5	1.39e5	1.67e5	1.32e5	18955	inactive
CG14543	1	2.15e5	1.69e5	2.71e5	2.87e5	14590	inactive
RhoGAP5A (Rho GTPase activating protein at 5A)	1	1.92e5	1.76e5	2.28e5	2.34e5	12810	inactive
Spag1 (Spag1 axonemal dynein assembly factor)	1	1.56e5	1.22e5	2.26e5	2.03e5	12510	inactive
CG1024	1	1.05e5	1.09e5	87965	69165	5190	inactive
CG14803	1	1.42e5	1.57e5	2.36e5	2.30e5	9280	inactive
CG34367	1	1.16e5	1.21e5	70530	96485	18105	inactive
CG34367	2	1.04e5	1.31e5	68230	93490	15065	inactive
CG9452	1	1.56e5	1.13e5	85070	65330	10400	inactive

4 entries already listed, sorted by “induced reporter light, run 1, well a”, ascending:
gene knocked down	reagent	induced reporter light, run 1, well a	induced reporter light, run 1, well b	control promoter light, run 1, well a	control promoter light, run 1, well b	uninduced reporter light, run 1, well a	outcome
CG14440	1	23670	19345	32215	25190	5470	inactive
BthD (BthD selenoprotein)	1	82350	1.07e5	1.11e5	74285	5740	inactive
sas (stranded at second)	1	1.04e5	1.12e5	1.16e5	95040	10478	inactive
CG4660	1	1.71e5	1.70e5	2.82e5	2.57e5	14150	inactive
